Experimental findings from the supplement of paper PMC12819154, “High-throughput peptide-centric local stability assay extends protein–ligand identification to membrane proteins, tissues and bacteria” (Nature Structural & Molecular Biology, 2025) are described below.

The chains behind the UniProt entries cited, without tags or fusion partners. Where a name states a change or a piece, a line headed by the entry shows the natural chain unless it says otherwise.
UniProt P05783: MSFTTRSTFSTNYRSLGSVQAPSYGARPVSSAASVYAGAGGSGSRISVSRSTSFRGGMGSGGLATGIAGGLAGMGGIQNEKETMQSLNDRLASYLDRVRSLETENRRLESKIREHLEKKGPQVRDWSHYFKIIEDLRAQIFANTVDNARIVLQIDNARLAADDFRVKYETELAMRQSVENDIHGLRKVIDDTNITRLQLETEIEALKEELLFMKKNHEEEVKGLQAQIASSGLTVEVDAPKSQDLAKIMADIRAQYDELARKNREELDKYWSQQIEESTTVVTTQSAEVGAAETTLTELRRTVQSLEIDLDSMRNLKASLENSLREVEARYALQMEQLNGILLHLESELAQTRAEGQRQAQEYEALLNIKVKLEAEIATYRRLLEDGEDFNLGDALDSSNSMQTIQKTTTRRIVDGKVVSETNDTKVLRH
UniProt P08621, whole entry: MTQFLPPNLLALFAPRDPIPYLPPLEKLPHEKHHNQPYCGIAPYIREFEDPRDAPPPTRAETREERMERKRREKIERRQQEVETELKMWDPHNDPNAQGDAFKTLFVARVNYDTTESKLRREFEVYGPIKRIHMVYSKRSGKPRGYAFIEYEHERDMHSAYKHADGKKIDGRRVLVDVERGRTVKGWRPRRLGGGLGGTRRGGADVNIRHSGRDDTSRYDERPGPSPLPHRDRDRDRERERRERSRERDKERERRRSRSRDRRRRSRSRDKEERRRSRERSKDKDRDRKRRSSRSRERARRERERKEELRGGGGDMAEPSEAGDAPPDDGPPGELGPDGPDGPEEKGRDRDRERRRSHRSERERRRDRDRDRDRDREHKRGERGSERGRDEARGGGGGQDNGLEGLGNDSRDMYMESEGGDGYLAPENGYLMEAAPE
UniProt P08243: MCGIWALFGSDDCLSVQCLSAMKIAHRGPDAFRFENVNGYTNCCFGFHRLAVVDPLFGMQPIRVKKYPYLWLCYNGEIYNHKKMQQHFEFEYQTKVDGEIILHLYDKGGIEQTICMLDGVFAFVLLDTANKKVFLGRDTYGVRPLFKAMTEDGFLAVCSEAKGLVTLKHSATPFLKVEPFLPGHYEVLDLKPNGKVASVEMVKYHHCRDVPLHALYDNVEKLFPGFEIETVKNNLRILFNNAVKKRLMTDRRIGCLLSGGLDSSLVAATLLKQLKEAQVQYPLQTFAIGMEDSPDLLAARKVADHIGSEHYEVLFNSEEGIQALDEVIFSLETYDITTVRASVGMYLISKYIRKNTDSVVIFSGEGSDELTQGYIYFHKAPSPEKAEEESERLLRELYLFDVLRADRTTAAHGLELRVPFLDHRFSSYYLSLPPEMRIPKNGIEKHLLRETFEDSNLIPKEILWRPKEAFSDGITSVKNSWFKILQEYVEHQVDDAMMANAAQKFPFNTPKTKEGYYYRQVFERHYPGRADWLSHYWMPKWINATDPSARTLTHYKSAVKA
UniProt P08579, whole entry: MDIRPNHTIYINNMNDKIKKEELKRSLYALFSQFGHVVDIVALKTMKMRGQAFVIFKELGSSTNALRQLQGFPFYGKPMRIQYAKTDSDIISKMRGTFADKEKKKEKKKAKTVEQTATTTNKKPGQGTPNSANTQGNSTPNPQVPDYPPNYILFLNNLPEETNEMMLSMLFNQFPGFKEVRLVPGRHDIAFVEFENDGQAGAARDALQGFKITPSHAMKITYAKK
UniProt P08238, whole entry: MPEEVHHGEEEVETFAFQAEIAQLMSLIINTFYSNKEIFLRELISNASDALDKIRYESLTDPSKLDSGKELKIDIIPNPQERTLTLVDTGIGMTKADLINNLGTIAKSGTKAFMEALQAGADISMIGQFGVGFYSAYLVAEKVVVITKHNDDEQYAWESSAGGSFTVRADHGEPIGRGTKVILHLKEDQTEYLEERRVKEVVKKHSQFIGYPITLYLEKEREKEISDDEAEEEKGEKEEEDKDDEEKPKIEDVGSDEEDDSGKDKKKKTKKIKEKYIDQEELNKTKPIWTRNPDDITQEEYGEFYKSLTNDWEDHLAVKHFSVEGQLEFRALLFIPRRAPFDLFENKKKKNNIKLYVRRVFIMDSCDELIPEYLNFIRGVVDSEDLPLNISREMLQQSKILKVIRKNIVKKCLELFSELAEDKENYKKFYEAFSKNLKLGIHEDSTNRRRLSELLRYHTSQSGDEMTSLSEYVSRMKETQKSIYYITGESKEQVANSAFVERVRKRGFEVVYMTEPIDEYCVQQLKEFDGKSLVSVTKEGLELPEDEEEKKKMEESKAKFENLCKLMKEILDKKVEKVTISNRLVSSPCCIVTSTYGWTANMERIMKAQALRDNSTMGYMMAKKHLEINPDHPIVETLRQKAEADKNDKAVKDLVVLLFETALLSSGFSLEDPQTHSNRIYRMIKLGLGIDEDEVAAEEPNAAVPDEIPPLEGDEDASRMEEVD
UniProt P12277: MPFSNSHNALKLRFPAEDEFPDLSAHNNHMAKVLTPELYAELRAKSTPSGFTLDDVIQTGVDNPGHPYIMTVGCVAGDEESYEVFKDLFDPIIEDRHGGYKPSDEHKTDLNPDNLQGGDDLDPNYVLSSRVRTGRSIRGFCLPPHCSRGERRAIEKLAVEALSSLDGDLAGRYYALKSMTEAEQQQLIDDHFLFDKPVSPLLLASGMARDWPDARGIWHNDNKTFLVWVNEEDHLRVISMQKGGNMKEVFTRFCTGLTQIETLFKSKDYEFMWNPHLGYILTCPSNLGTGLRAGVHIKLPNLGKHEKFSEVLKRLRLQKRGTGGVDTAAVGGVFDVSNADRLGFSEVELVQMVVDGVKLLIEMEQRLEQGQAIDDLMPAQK
UniProt P08047, whole entry: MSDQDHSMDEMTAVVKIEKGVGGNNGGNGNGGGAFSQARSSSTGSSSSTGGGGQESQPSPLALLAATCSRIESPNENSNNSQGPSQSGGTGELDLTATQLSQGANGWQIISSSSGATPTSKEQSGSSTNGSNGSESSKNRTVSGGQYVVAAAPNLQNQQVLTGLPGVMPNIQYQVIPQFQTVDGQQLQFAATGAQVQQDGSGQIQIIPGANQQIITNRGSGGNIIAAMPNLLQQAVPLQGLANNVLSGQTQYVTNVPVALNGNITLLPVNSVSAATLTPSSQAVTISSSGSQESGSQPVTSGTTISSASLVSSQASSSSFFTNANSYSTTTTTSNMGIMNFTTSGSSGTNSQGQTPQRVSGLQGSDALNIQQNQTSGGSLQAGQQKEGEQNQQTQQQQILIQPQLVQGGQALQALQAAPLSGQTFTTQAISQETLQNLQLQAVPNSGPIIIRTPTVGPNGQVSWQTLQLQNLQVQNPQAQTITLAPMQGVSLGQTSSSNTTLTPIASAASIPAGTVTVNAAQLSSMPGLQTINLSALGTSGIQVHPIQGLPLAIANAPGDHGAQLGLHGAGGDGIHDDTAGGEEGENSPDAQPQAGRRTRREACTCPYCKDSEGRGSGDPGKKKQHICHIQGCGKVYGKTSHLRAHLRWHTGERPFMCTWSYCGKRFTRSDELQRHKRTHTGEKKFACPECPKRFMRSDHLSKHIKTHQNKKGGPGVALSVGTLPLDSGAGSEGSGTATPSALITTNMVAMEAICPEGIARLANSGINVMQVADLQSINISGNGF
UniProt P12694: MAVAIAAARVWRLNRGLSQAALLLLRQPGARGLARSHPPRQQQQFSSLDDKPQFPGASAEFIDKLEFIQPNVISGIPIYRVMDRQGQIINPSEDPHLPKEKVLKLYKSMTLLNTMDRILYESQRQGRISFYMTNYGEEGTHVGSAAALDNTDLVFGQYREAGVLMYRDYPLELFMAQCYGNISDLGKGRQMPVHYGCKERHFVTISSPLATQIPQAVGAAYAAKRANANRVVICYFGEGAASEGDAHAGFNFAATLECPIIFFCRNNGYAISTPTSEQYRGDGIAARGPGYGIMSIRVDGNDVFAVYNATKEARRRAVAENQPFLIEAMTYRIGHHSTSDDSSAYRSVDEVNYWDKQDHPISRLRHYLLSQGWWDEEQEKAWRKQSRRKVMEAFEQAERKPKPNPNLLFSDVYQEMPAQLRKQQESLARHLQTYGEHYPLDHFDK
UniProt P13224: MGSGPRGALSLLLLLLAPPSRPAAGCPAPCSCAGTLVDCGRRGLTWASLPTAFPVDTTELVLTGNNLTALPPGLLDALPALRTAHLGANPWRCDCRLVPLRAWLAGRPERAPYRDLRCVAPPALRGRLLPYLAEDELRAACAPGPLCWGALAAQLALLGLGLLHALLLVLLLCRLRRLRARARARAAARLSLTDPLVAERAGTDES
UniProt P05091: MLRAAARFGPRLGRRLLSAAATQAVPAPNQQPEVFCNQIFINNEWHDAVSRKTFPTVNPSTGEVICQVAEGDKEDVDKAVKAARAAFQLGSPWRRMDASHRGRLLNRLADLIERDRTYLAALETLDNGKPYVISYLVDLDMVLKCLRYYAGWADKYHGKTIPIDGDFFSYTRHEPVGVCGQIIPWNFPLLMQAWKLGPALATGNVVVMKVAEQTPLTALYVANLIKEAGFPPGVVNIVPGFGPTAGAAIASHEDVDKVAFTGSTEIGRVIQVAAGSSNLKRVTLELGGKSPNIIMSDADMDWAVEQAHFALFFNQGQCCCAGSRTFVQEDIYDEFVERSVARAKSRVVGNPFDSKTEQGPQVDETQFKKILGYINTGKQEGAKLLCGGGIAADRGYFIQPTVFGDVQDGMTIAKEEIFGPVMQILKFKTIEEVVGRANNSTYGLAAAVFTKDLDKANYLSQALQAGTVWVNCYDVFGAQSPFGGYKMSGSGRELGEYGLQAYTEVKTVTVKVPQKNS

The list shows a part of the results. Most entries show no effect beyond the scatter of the controls.

Compound in this assay: CN[C@@H]1C[C@H]2O[C@@](C)([C@@H]1OC)n1c3ccccc3c3c4c(c5c6ccccc6n2c5c31)C(=O)NC4 [staurosporine]
As to the kind of experiment: log2 fold change of tryptic peptide abundance, ligand vs vehicle (limited proteolysis) (log2 ratio); higher = more trypsin-susceptible (destabilized). The following applies: ligand concentration: 20 uM; sample: K562 cleared lysate; digestion: 4 min, 22 C (HT-PELSA RT4min, Orbitrap Astral).
Take “KRT18 (peptide sequence: VIDDTNITR, peptide start residue: 188) (UniProt P05783)”: the log2 fold change is 0.245. The same measure for “SNRNP70 (peptide sequence: PGPSPLPHR, peptide start residue: 223) (UniProt P08621)”: -0.523. As for “ASNS (peptide sequence: VASVEMVKYHHCR, peptide start residue: 196) (UniProt P08243)”, the log2 fold change was 1.5. The result for “SNRPB2 (peptide sequence: TVEQTATTTNK, peptide start residue: 112) (UniProt P08579)” reads -0.0964. The result for “HSP90AB1 (peptide sequence: ALLFIPRRAPFDLFENK, peptide start residue: 331) (UniProt P08238)” reads 1.14; that for “CKB (peptide sequence: VLTPELYAELR, peptide start residue: 33) (UniProt P12277)”, -0.196; that for “SP1 (peptide sequence: WHTGERPFMCTWSYCGKR, peptide start residue: 649) (UniProt P08047)”, -0.751. The result for “BCKDHA (peptide sequence: QMPVHYGCK, peptide start residue: 190) (UniProt P12694)” reads 0.452. Turning to “GP1BB (peptide sequence: LSLTDPLVAER, peptide start residue: 190) (UniProt P13224)”, the log2 fold change was -0.13. For the target “ALDH2 (peptide sequence: TFVQEDIYDEFVER, peptide start residue: 325) (UniProt P05091)”, the log2 fold change amounted to 0.586.
